Measurements from the supplement of paper PMC10849652.
The other results are listed elsewhere or left out.

Protein sequences, listed by entry. Tags and fused reporters are not part of them. Lines headed by an entry give the natural chain unless they say otherwise; changes in a name come on top.
UniProt O43148, whole entry, looked up: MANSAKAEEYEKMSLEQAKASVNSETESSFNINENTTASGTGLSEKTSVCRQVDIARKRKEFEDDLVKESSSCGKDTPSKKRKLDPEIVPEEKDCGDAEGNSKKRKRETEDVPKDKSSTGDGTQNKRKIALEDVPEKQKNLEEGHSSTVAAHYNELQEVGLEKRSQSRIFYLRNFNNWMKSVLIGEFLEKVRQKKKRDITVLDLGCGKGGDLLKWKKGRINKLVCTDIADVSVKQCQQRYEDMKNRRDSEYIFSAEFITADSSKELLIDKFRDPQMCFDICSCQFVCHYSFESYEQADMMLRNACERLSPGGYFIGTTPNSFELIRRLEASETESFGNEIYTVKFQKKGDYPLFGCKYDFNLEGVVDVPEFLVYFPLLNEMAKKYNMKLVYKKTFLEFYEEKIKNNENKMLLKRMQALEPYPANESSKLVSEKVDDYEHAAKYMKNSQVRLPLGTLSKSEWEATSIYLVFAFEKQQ
UniProt Q96BH1: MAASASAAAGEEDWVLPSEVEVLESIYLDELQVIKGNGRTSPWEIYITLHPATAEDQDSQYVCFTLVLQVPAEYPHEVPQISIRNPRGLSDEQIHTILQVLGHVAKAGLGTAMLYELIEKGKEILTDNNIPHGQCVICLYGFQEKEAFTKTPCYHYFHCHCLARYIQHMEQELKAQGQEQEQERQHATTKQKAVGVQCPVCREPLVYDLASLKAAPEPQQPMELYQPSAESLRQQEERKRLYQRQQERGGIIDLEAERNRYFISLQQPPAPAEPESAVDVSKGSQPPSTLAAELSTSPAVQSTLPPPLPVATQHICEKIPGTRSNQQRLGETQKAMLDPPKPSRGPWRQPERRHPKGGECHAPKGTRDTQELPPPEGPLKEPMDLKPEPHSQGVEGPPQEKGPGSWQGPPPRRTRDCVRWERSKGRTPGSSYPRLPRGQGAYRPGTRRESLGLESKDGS
UniProt Q8IXI1, whole entry, looked up: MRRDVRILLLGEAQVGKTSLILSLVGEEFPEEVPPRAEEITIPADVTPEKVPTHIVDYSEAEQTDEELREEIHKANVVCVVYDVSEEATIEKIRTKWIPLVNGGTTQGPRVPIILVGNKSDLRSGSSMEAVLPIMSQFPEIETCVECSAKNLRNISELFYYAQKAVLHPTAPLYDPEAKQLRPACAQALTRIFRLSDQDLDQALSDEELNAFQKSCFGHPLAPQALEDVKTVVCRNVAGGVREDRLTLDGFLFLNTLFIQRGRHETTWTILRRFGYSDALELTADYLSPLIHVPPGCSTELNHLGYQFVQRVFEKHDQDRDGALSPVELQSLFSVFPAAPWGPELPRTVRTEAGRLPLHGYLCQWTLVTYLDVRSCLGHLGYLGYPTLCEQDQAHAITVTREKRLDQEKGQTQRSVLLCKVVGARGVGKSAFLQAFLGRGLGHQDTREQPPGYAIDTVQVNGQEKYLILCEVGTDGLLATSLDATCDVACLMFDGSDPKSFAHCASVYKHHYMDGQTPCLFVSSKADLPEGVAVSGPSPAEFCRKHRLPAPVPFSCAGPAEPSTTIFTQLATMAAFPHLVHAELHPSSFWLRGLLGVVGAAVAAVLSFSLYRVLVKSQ
UniProt Q9BVS4: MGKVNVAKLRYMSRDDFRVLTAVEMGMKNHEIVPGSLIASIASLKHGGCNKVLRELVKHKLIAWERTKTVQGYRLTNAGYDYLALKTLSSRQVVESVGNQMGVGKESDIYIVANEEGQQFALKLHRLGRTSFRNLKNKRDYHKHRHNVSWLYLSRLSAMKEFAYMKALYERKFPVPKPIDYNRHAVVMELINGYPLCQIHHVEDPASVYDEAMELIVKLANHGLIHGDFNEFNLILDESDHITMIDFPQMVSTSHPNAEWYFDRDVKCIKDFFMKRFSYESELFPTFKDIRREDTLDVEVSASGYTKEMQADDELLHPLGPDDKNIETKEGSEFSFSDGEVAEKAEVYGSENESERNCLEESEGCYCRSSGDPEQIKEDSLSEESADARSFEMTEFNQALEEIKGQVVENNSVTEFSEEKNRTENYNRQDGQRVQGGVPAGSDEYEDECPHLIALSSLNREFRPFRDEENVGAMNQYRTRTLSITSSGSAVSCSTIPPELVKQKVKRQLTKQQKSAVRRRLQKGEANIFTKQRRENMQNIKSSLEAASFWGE
UniProt Q969K3: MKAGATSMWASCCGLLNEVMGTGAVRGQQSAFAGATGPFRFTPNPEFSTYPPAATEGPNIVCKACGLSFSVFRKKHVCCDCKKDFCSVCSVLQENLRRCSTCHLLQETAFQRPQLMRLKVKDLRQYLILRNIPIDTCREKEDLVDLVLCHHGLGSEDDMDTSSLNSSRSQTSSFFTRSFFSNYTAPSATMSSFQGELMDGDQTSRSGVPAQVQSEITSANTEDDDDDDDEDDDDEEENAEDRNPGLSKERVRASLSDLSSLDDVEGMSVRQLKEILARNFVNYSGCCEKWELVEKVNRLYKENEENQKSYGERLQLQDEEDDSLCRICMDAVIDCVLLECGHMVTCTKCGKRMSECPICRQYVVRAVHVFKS
UniProt Q8IYW5, whole entry, looked up: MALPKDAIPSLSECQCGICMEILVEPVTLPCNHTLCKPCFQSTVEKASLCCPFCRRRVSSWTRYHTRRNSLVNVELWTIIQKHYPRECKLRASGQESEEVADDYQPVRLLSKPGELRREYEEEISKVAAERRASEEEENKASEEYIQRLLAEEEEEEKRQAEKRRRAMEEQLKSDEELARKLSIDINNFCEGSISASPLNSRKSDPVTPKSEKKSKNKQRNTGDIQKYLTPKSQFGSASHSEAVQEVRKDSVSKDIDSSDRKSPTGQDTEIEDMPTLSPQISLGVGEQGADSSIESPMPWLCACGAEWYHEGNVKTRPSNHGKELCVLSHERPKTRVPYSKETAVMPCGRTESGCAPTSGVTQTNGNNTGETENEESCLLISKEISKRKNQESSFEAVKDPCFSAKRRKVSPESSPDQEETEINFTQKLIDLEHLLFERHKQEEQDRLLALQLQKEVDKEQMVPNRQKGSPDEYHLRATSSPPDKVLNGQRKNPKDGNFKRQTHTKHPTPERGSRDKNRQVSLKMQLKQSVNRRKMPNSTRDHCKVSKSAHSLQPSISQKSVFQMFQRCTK
UniProt O60942: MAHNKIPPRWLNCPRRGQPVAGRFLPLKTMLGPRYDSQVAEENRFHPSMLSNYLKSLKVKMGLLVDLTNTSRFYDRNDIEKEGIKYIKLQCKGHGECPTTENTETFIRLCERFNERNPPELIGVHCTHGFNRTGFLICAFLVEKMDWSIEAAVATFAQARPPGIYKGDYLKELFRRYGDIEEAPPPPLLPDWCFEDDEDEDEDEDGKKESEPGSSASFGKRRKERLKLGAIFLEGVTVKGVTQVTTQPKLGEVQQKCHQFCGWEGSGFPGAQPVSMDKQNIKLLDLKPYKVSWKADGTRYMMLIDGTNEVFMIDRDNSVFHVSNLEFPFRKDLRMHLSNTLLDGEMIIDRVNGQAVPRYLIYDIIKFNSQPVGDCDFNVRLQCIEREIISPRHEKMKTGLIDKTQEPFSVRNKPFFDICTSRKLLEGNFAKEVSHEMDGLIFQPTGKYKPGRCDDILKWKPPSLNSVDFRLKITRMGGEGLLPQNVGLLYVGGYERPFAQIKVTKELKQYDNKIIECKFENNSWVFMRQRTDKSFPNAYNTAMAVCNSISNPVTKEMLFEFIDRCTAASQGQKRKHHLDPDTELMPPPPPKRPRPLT
UniProt Q9NWS8: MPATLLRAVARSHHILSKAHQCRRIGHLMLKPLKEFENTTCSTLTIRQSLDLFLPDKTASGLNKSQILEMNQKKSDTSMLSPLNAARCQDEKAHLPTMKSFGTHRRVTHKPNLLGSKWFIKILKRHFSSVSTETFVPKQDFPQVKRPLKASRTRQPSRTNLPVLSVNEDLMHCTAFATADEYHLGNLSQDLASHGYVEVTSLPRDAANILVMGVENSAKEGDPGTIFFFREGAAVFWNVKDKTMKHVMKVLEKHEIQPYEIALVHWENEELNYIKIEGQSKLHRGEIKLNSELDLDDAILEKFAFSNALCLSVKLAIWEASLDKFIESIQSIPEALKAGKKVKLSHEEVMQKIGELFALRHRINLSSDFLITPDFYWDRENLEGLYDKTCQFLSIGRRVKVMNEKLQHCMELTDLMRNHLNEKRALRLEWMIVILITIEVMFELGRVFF
UniProt Q5VTB9: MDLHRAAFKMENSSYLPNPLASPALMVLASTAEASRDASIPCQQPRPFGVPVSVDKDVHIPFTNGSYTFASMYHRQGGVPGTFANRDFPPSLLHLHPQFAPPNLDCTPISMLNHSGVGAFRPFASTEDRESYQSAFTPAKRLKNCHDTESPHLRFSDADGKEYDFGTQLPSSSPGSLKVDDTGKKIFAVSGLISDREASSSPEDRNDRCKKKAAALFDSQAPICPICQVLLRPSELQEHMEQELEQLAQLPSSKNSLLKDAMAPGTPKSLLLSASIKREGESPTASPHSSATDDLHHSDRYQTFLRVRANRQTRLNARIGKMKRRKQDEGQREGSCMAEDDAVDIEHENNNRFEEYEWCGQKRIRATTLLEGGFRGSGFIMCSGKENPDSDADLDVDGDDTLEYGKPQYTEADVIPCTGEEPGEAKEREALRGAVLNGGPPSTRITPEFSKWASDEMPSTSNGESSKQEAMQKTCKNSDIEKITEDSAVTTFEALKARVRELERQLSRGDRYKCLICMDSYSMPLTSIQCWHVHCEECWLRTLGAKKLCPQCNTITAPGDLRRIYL
UniProt Q96EP0: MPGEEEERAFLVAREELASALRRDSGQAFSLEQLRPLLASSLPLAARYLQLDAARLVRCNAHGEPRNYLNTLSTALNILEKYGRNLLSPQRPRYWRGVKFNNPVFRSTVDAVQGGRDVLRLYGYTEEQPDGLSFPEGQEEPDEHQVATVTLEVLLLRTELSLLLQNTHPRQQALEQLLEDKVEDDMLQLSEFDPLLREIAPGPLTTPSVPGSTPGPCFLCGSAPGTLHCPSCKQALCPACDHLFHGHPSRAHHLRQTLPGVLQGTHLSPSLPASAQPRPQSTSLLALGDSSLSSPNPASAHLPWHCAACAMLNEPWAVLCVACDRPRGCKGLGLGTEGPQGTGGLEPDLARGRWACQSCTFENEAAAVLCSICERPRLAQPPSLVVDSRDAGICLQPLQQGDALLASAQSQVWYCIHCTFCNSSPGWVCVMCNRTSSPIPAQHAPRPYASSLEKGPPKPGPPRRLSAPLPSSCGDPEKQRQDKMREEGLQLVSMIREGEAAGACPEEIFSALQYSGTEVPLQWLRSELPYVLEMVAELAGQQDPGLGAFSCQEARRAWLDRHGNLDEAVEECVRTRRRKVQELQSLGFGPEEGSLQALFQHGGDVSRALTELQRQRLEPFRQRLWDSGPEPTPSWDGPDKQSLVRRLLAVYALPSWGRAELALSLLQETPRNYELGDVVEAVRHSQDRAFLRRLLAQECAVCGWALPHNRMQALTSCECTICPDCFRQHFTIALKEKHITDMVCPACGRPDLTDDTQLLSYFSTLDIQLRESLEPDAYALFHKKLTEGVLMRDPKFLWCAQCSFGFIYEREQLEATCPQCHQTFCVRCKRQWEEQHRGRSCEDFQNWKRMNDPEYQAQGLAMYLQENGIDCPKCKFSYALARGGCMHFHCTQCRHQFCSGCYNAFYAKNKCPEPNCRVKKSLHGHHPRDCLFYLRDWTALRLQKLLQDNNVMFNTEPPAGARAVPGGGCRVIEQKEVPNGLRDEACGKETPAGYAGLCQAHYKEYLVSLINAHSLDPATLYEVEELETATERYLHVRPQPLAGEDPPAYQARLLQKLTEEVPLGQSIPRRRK
UniProt Q96A37: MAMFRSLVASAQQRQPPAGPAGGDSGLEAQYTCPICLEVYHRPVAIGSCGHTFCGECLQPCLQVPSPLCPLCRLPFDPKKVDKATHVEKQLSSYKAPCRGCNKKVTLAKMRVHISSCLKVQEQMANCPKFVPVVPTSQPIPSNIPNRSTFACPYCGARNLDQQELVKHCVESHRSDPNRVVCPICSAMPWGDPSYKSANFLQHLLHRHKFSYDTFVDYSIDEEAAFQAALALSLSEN
UniProt Q8IXI2: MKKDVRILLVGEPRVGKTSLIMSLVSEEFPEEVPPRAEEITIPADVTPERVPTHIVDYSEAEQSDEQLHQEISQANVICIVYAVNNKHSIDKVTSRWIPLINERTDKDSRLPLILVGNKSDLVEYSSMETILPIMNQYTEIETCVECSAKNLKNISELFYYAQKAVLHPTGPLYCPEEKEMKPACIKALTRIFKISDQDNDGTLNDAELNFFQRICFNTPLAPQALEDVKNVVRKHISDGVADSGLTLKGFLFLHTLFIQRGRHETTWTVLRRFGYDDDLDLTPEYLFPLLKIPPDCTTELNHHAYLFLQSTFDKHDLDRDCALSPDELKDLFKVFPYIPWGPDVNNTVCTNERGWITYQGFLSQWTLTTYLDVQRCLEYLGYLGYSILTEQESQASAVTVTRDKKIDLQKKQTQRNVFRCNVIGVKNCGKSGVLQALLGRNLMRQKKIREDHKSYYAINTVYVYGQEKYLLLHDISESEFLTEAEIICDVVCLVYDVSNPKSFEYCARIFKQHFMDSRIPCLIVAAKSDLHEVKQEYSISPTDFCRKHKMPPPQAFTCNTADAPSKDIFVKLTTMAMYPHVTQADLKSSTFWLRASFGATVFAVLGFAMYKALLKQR

Key:
Assay in all cases: log2 fold change, soluble protein after heating vs DMSO (PISA); higher = thermal stabilisation; K562 lysate, 10 uM; active = over 0.2 and 3.5 SD of the protein, either way, in both replicates (recomputed)
[1] = compound: NCC(=O)Nc1ccc(-n2nc(C(F)(F)F)cc2-c2ccc3c(ccc4ccccc43)c2)cc1
Outline: (§1)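 To prepare the extract, K562 pellets were dounce-homogenised in PBS pH 7.4 with 1 mM MgCl2, giving crude material at 1 mg/mL protein. This was treated with 10 μM compound for 30 min, then heated in aliquots for 3 min over 48°C-58°C before pooling and addition of NP-40 to 0.5% at 4°C. Centrifugation at 21,000xg for 90 min left soluble protein in the supernatant, which TMTpro 16plex LC-MS/MS quantified with equalised channel sums. Results are log-two fold changes in thermal stability compared with solvent controls, from duplicates.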

[2] = compound: O=C(CCCCCCC(=O)Nc1ccccc1)NO [vorinostat]
Outline: as §1

[3] = compound: O=C(O)c1ccc2c(c1)nc(Nc1cccc(Cl)c1)c1ccncc12 [silmitasertib]
Outline: as §1

[4] = compound: O=C1NC(=O)C(c2cnc3ccccn23)=C1c1cn2c3c(cc(F)cc13)CN(C(=O)N1CCCCC1)CC2
Outline: as §1

[5] = compound: c1cn2cc(-c3ccc4cn[nH]c4c3)nc(Nc3ccc(N4CCOCC4)cc3)c2n1 [entospletinib]
Outline: as §1

Measured: log2 fold change

RNMT isoform 2 (UniProt O43148)
inactive: [1] 0.001 | [2] 0.016 | [3] -0.054 | [4] 0.009 | [5] -0.041

RILP (UniProt Q96NA2)
inactive: [1] 0.01 | [2] 0.093 | [3] 0.021 | [4] -0.01 | [5] -0.017

RPL17 isoform 3 (UniProt P18621)
inactive: [1] -0.016 | [2] 0.127 | [3] 0.003 | [4] 0.017 | [5] -0.01

RNF25 (UniProt Q96BH1)
inactive: [1] 0.025 | [2] 0.097 | [3] -0.034 | [4] -0.02 | [5] -0.004

Two records drawn at random from those above, as already listed:
RPL17 isoform 3 (UniProt P18621)
inactive: [1] -0.016 | [2] 0.127 | [3] 0.003 | [4] 0.017 | [5] -0.01

RILP (UniProt Q96NA2)
inactive: [1] 0.01 | [2] 0.093 | [3] 0.021 | [4] -0.01 | [5] -0.017

Additional results

RPL24 (UniProt P83731)
inactive: [1] 0.002 | [2] 0.074 | [3] 0.024 | [4] 0.033 | [5] 0.041

RPL36A (UniProt P83881)
inactive: [1] 0.016 | [2] 0.132 | [3] 0 | [4] 0.047 | [5] 0.019

RPL30 (UniProt P62888)
inactive: [1] 0.002 | [2] 0.067 | [3] 0.028 | [4] -0.019 | [5] 0.017

RHOT2 (UniProt Q8IXI1)
inactive: [1] 0.039 | [2] 0.037 | [3] 0.048 | [4] 0.007 | [5] -0.014

RIOK2 (UniProt Q9BVS4)
inactive: [1] -0.022 | [2] -0.098 | [3] 0.096 | [4] 0.008 | [5] 0.315

RNF34 isoform 2 (UniProt Q969K3)
inactive: [1] -0.085 | [2] -0.159 | [3] 0.051 | [4] 0.046 | [5] 0.058

RPL18A (UniProt Q02543)
inactive: [1] -0.032 | [2] 0.048 | [3] 0.02 | [4] 0.04 | [5] 0.033

RNF168 (UniProt Q8IYW5)
inactive: [1] 0.056 | [2] -0.313 | [3] 0.025 | [4] -0.046 | [5] 0.042

RPL10 (UniProt P27635)
inactive: [1] -0.049 | [2] 0.062 | [3] 0.013 | [4] 0.01 | [5] 0.003

RNGTT (UniProt O60942)
inactive: [1] 0.019 | [2] -0.142 | [3] 0.065 | [4] -0.007 | [5] -0.025

RPL10 (UniProt F8W7C6)
inactive: [1] 0.052 | [2] -0.037 | [3] 0.012 | [4] 0.013 | [5] -0.009

RPL26 (UniProt P61254)
inactive: [1] -0.008 | [2] 0.07 | [3] 0.104 | [4] 0.082 | [5] -0.076

RPA1 (UniProt P27694)
inactive: [1] 0.015 | [2] 0.027 | [3] -0.005 | [4] -0.018 | [5] 0.013

RMND1 (UniProt Q9NWS8)
inactive: [1] 0.01 | [2] 0.092 | [3] 0.019 | [4] 0.031 | [5] -0.015

RNF220 (UniProt Q5VTB9)
inactive: [1] -0.004 | [2] -0.11 | [3] 0.031 | [4] 0.012 | [5] 0.023

RPL11 (UniProt P62913)
inactive: [1] 0 | [2] -0.076 | [3] 0.059 | [4] -0.011 | [5] -0.026

RPL22 (UniProt P35268)
inactive: [1] 0.05 | [2] 0.181 | [3] 0.005 | [4] 0.1 | [5] 0.011

RNF31 (UniProt Q96EP0)
inactive: [1] 0.013 | [2] -0.024 | [3] -0.004 | [4] 0.006 | [5] -0.056

RPL27 (UniProt P61353)
inactive: [1] 0.014 | [2] 0.129 | [3] 0.03 | [4] 0.013 | [5] 0.009

RNF166 (UniProt Q96A37)
inactive: [1] -0.024 | [2] 0.062 | [3] 0.076 | [4] 0.048 | [5] -0.091

RHOT1 isoform 3 (UniProt Q8IXI2)
inactive: [1] 0.024 | [2] -0.057 | [3] -0.004 | [4] -0.009 | [5] -0.029
